From the supplement of paper PMC7661543
± gives the standard deviation of the averaged measurements. The effect of the compound repeats well; differences between the knockouts mostly do not.

Test system: ZR-75-1
Experiment: relative cell number vs DMSO control (72 h) (% of DMSO); higher = less growth inhibition (more cells)
Protocol: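 QMAP-Seq: a pool of 5 breast cancer cell lines (ZR-75-1, SKBR3, HCC-38, MDA-MB-231, BT-20), each carrying 12 doxycycline-inducible Cas9 sgRNA perturbations (11 knockouts plus non-targeting sgNT), was treated with compounds for 72 h at four 10-fold doses (10 nM-10 uM or 1 nM-1 uM range). Barcodes were amplified and sequenced, and cell number was interpolated from 293T spike-in standard curves. The result is expressed as % of the median of DMSO wells. Two biological replicates.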

O=C(Nc1ccc([N+](=O)[O-])cc1Cl)c1cc(Cl)ccc1O [Niclosamide]
Conditions | relative cell number
sgRNA knockout: sgATF3, 10 nM | 96.4 ± 30
sgRNA knockout: sgATF3, 100 nM | 90.8 ± 16
sgRNA knockout: sgATF3, 1000 nM | 86.7 ± 34
sgRNA knockout: sgATF3, 10000 nM | 55.5 ± 2
sgRNA knockout: sgATF4, 10 nM | 94.5 ± 26
sgRNA knockout: sgATF4, 100 nM | 80.4 ± 15
sgRNA knockout: sgATF4, 1000 nM | 109 ± 7.4
sgRNA knockout: sgATF4, 10000 nM | 69.5 ± 2.2
sgRNA knockout: sgATF6, 10 nM | 80.8 ± 12
sgRNA knockout: sgATF6, 100 nM | 52 ± 23
sgRNA knockout: sgATF6, 1000 nM | 86.7 ± 28
sgRNA knockout: sgATF6, 10000 nM | 56.7 ± 14
sgRNA knockout: sgATG7, 10 nM | 89.5 ± 35
sgRNA knockout: sgATG7, 100 nM | 71 ± 18
sgRNA knockout: sgATG7, 1000 nM | 114 ± 16
sgRNA knockout: sgATG7, 10000 nM | 48.2 ± 9
sgRNA knockout: sgERN1, 10 nM | 99 ± 11
sgRNA knockout: sgERN1, 100 nM | 85.5 ± 3.4
sgRNA knockout: sgERN1, 1000 nM | 102 ± 17
sgRNA knockout: sgERN1, 10000 nM | 58.7 ± 12
sgRNA knockout: sgHSF2, 10 nM | 107 ± 39
sgRNA knockout: sgHSF2, 100 nM | 77.9 ± 5.3
sgRNA knockout: sgHSF2, 1000 nM | 95.2 ± 6.5
sgRNA knockout: sgHSF2, 10000 nM | 42.9 ± 0.65
sgRNA knockout: sgNFE2L2, 10 nM | 103 ± 40
sgRNA knockout: sgNFE2L2, 100 nM | 114 ± 11
sgRNA knockout: sgNFE2L2, 1000 nM | 83.5 ± 13
sgRNA knockout: sgNFE2L2, 10000 nM | 43.9 ± 3.3
sgRNA knockout: sgSLC35F2, 10 nM | 112 ± 72
sgRNA knockout: sgSLC35F2, 100 nM | 95 ± 18
sgRNA knockout: sgSLC35F2, 1000 nM | 92.4 ± 29
sgRNA knockout: sgSLC35F2, 10000 nM | 70.2 ± 4.9
sgRNA knockout: sgXBP1, 10 nM | 99.1 ± 10
sgRNA knockout: sgXBP1, 100 nM | 83.1 ± 5
sgRNA knockout: sgXBP1, 1000 nM | 93.4 ± 10
sgRNA knockout: sgXBP1, 10000 nM | 43 ± 4.4

NC(=O)Nc1sc(-c2ccc(F)cc2)cc1C(N)=O [TPCA1]
Conditions | relative cell number
sgRNA knockout: sgATF3, 10 nM | 125 ± 2.6
sgRNA knockout: sgATF3, 100 nM | 121 ± 6.1
sgRNA knockout: sgATF3, 1000 nM | 95.9 ± 9.1
sgRNA knockout: sgATF3, 10000 nM | 39.7 ± 2.5
sgRNA knockout: sgATF4, 10 nM | 110 ± 18
sgRNA knockout: sgATF4, 100 nM | 116 ± 3.7
sgRNA knockout: sgATF4, 1000 nM | 119 ± 14
sgRNA knockout: sgATF4, 10000 nM | 61.67 ± 0.54
sgRNA knockout: sgATF6, 10 nM | 129 ± 34
sgRNA knockout: sgATF6, 100 nM | 95.5 ± 11
sgRNA knockout: sgATF6, 1000 nM | 110 ± 18
sgRNA knockout: sgATF6, 10000 nM | 40 ± 1.5
sgRNA knockout: sgATG7, 10 nM | 111 ± 44
sgRNA knockout: sgATG7, 100 nM | 111 ± 3.9
sgRNA knockout: sgATG7, 1000 nM | 123 ± 16
sgRNA knockout: sgATG7, 10000 nM | 41.7 ± 10
sgRNA knockout: sgERN1, 10 nM | 110 ± 15
sgRNA knockout: sgERN1, 100 nM | 106 ± 5.5
sgRNA knockout: sgERN1, 1000 nM | 89.5 ± 11
sgRNA knockout: sgERN1, 10000 nM | 50.5 ± 9.2
sgRNA knockout: sgHSF2, 10 nM | 108 ± 6.4
sgRNA knockout: sgHSF2, 100 nM | 98 ± 28
sgRNA knockout: sgHSF2, 1000 nM | 113 ± 13
sgRNA knockout: sgHSF2, 10000 nM | 44.9 ± 8.2
sgRNA knockout: sgNFE2L2, 10 nM | 115 ± 43
sgRNA knockout: sgNFE2L2, 100 nM | 108 ± 24
sgRNA knockout: sgNFE2L2, 1000 nM | 115 ± 3.6
sgRNA knockout: sgNFE2L2, 10000 nM | 32.5 ± 14
sgRNA knockout: sgSLC35F2, 10 nM | 103 ± 66
sgRNA knockout: sgSLC35F2, 100 nM | 177 ± 11
sgRNA knockout: sgSLC35F2, 1000 nM | 117 ± 26
sgRNA knockout: sgSLC35F2, 10000 nM | 50.8 ± 15
sgRNA knockout: sgXBP1, 10 nM | 95.5 ± 22
sgRNA knockout: sgXBP1, 100 nM | 103 ± 8.7
sgRNA knockout: sgXBP1, 1000 nM | 95.5 ± 4.9
sgRNA knockout: sgXBP1, 10000 nM | 47.1 ± 8.3

CC(C)C[C@H](NC(=O)[C@H](CCc1ccccc1)NC(=O)CN1CCOCC1)C(=O)N[C@@H](Cc1ccccc1)C(=O)N[C@@H](CC(C)C)C(=O)[C@@]1(C)CO1 [Carfilzomib]
Conditions | relative cell number
sgRNA knockout: sgATF3, 1 nM | 102 ± 28
sgRNA knockout: sgATF3, 10 nM | 103 ± 19
sgRNA knockout: sgATF3, 100 nM | 27.4 ± 14
sgRNA knockout: sgATF3, 1000 nM | 5.76 ± 1.3
sgRNA knockout: sgATF4, 1 nM | 76.8 ± 17
sgRNA knockout: sgATF4, 10 nM | 54.7 ± 16
sgRNA knockout: sgATF4, 100 nM | 30 ± 13
sgRNA knockout: sgATF4, 1000 nM | 5.17 ± 1
sgRNA knockout: sgATF6, 1 nM | 50.7 ± 8.1
sgRNA knockout: sgATF6, 10 nM | 88.9 ± 14
sgRNA knockout: sgATF6, 100 nM | 27.8 ± 6.4
sgRNA knockout: sgATF6, 1000 nM | 4.17 ± 1.4
sgRNA knockout: sgATG7, 1 nM | 105 ± 51
sgRNA knockout: sgATG7, 10 nM | 97.4 ± 32
sgRNA knockout: sgATG7, 100 nM | 29.3 ± 17
sgRNA knockout: sgATG7, 1000 nM | 8.76 ± 0.14
sgRNA knockout: sgERN1, 1 nM | 85.5 ± 29
sgRNA knockout: sgERN1, 10 nM | 76.7 ± 8.4
sgRNA knockout: sgERN1, 100 nM | 34.1 ± 13
sgRNA knockout: sgERN1, 1000 nM | 6.05 ± 1.8
sgRNA knockout: sgHSF2, 1 nM | 94.3 ± 31
sgRNA knockout: sgHSF2, 10 nM | 89.8 ± 7.4
sgRNA knockout: sgHSF2, 100 nM | 27.6 ± 12
sgRNA knockout: sgHSF2, 1000 nM | 4.47 ± 1.3
sgRNA knockout: sgNFE2L2, 1 nM | 69.3 ± 5.4
sgRNA knockout: sgNFE2L2, 10 nM | 96.9 ± 8.8
sgRNA knockout: sgNFE2L2, 100 nM | 30 ± 11
sgRNA knockout: sgNFE2L2, 1000 nM | 7 ± 1.1
sgRNA knockout: sgSLC35F2, 1 nM | 57.2 ± 27
sgRNA knockout: sgSLC35F2, 10 nM | 63.6 ± 21
sgRNA knockout: sgSLC35F2, 100 nM | 40.2 ± 14
sgRNA knockout: sgSLC35F2, 1000 nM | 2.5 ± 1.4
sgRNA knockout: sgXBP1, 1 nM | 75.2 ± 16
sgRNA knockout: sgXBP1, 10 nM | 73.05 ± 0.25
sgRNA knockout: sgXBP1, 100 nM | 26.7 ± 5.8
sgRNA knockout: sgXBP1, 1000 nM | 4.83 ± 1
